US20030004092A1
These are yes or no findings as the source states them, for the method shown. For some of these results: In cells and extracts the contact can be indirect. Some binding calls cover weakened binding; strength is not graded here. For some of these results: Where a sequence is shown, tags or fusion partners need not be part of it.

Sequences of proteins named here, by UniProt entry; tags and fusion partners are left off.
UniProt P01106: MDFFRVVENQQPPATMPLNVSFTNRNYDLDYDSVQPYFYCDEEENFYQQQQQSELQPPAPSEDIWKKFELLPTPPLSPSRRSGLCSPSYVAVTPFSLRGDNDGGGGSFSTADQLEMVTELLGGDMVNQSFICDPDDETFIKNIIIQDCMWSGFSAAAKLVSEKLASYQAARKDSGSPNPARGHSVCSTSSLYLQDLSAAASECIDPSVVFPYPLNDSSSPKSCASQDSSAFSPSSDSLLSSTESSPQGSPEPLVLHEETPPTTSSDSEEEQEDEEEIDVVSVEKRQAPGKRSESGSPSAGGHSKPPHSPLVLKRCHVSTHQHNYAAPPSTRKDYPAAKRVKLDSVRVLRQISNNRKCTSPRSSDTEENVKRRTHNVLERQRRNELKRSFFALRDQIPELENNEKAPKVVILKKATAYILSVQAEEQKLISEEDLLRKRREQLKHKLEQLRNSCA
UniProt P01108: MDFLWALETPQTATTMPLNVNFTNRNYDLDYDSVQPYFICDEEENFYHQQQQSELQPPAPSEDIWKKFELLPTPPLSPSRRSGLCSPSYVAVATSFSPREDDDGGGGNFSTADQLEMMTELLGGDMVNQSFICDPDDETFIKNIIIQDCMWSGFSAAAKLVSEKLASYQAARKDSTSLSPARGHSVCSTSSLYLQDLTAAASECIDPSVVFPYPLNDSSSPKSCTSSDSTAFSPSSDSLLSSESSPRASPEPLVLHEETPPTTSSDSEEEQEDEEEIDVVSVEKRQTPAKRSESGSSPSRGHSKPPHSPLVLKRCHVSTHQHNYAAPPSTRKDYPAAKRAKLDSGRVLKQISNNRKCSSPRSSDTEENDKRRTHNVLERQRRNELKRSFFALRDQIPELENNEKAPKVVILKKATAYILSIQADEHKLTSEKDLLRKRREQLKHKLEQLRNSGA

Key:
[1] = target: Myc (clone from pJG4-5-based HeLa cDNA library, B42 activation domain fusion protein) (not stated (clone from a HeLa cDNA library)) (UniProt P01106); experiment: yeast two-hybrid, growth on leu- medium
[2] = target: Myc (clone from pJG4-5-based HeLa cDNA library, B42 activation domain fusion protein) (not stated (clone from a HeLa cDNA library)) (UniProt P01106); experiment: yeast two-hybrid
[3] = target: Myc (clone from pJG4-5-based HeLa cDNA library, B42 activation domain fusion protein) (not stated (clone from a HeLa cDNA library)) (UniProt P01106); experiment: yeast two-hybrid, growth on Leu- media and β-gal expression
[4] = target: Myc (clone from pJG4-5-based HeLa cDNA library, B42 activation domain fusion protein) (not stated (clone from a HeLa cDNA library)) (UniProt P01106); experiment: yeast two-hybrid, lacZ reporter
[5] = target: T1, GST-cdr2 fusion protein containing amino acids 16-192 of human cdr2 (human) (UniProt Q01850); experiment: GST pull-down, fluorography
T1 sequence: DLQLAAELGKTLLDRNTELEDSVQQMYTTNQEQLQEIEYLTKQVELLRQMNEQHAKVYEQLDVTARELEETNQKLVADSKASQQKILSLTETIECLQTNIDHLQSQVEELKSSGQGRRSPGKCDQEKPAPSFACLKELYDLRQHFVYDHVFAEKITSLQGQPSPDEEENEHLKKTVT

[6] = target: c-Myc in mouse cerebellum (mouse) (UniProt P01108); experiment: co-immunoprecipitation with anti-Myc rabbit polyclonal antibody, Western blot with PCD serum
[7] = target: c-Myc in mouse cerebellum (mouse) (UniProt P01108); experiment: co-immunoprecipitation with Myc antibodies, Western blot

B1: LexA/cdr2^65-140 bait construct (protein, not shown: large carriers)
chain: MNEQHAKVYEQLDVTARELEETNQKLVADSKASQQKILSLTETIECLQTNIDHLQSQVEELKSSGQGRRSPGKCDQ
[1]
  binding: binds
[2]
  binding: binds
[3]
  binding: binds
[4]
  binding: binds

B2: full length in vitro translated ^35S-labeled mouse cdr2 (protein, UniProt P97817 1-455, looked up)
chain: MLADNLVEEFEMEDEPWYDHRDLQQDLQLAAELGKTLLDRNTELEDSLQQMYTTNQEQLQEIEYLTKQVELLRQMNEQHAKVYEQLDVTARELEETNQKLVAESKASQQKILSLTETIECLQTNIDHLQSQVEELKSSSQGRGRQKACDQEKPAPSFSCLKELYDLRQHFVYDHVFAEKITSLQSQQSPDEEENEHLKKAVTMLQAQLSLERKKRVSVEAEYKVVLKENSELEQQLGATDAYRARALELEAEVAEMRQMLQAEHPFVNGVEKLVPDSLFVPFKEPSQSLLEEMFLAAPEAPRKPLKRSSSETALSSLAGDDIVKDHEDTCIRRAKAVKQRGISLLHEVDTQYSALKVKYEELLKKCQQEQDSLSHKAVQTSRLLTRDLTGLVTQSEAGASGWEPTPVSPESISSPTTTPPEYKALFKEIFSCIKKTKQEIDEQRTKYPSLSSYSY
modifications: ^35S-L-methionine label
[5]
  binding: binds

B3: cdr2 protein in mouse cerebellum (protein, UniProt P97817 1-455, looked up)
chain: B2 chain
[6]
  binding: binds
[7]
  binding: binds
